Literature values as cited in patent publication US12194073B1, “Method of arthropod egress” (priority 2023, dated 2025).
The name of at least one read-out is uncertain. At least one structure is not confirmed: it was looked up by name or label, or the drawing left a doubt.

[1] = oleogel, soyabean oil, beeswax and gelator

Compound | drug release [1] | release profile and oleogel texture [1] | drug loading and solubilization (self-emulsifying system, several oils and surfactants)
C[C@@H]1C[C@H]2[C@@H]3CCC4=CC(=O)C=C[C@]4(C)[C@@]3(F)[C@@H](O)C[C@]2(C)[C@@]1(O)C(=O)CO [Dexamethasone] | Extended | customisable | –
C[C@]12C=CC(=O)C=C1CC[C@@H]1[C@@H]2[C@@H](O)C[C@@]2(C)[C@H]1CC[C@]2(O)C(=O)CO [Prednisolone] | – | – | Improved drug loading and solubilization; in
